Source: the ROBIN nucleic acid binder screens (doi:10.1002/anie.202211358).

Oligonucleotides screened, 5′ to 3′:
PreQ1: PreQ1 riboswitch RNA pseudoknot, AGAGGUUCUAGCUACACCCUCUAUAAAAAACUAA. From B. subtilis. About 24,000 compounds screened, about 170 hits.
TPP: TPP riboswitch RNA three-way junction, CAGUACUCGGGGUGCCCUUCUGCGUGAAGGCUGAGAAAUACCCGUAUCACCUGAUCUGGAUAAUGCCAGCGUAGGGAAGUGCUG. About 24,000 compounds screened, about 160 hits.
SAM-II: SAM-II riboswitch RNA pseudoknot, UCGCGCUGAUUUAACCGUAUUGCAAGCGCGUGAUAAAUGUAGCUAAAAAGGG. About 21,000 compounds screened, about 200 hits.

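The test is a small-molecule microarray: each compound is printed twice on a reactive slide, and binding shows as fluorescence of the labelled oligonucleotide after washing. The data file lists only calls. An earlier report of the laboratory on the PreQ1, TPP and SAM-II riboswitches (doi:10.1038/s41467-019-09493-3) used 1 µM RNA for 2 h and required a mean Z-score above 3 (spot signal-to-noise against the whole library), a score well above that on a control array, and duplicate spots agreeing (coefficient of variation under 100); it then also set aside compounds that hit other targets, which this list keeps. The cut-offs behind this list may differ. A missing hit is not proof of no binding, and a hit is not a measured affinity.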
A compound is marked yes if it was called a hit and no if it was screened but was not.
The compounds are a random part of those screened.
A target missing from an entry has no call listed here.

{"compound": "Cc1nc(NCCN(C)C)c2sc3nc4c(cc3c2n1)COC(C)(C)C4", "PreQ1": "no", "TPP": "no", "SAM-II": "no"}
{"compound": "COc1ccc2ncc(S(=O)(=O)c3ccc(C)cc3)c(NCc3ccccc3)c2c1", "PreQ1": "no", "TPP": "no"}
{"compound": "Brc1ccc(NC(c2ccccc2)c2nnc(-c3ccccc3)o2)cc1", "stereo": "centres unmarked", "PreQ1": "no", "TPP": "no", "SAM-II": "no"}
{"compound": "C#CCN(Cc1ccc(OC)cc1)c1nc(CCN)nc2ccccc12", "PreQ1": "no", "TPP": "no", "SAM-II": "no"}
{"compound": "COc1ccccc1-c1cnn2c(NCc3ccccn3)cc(C)nc12", "PreQ1": "no", "TPP": "no"}
{"compound": "COc1ccc(CNc2nc(-c3ccc(OC)c(OC)c3)cc(C(F)(F)F)n2)cc1", "PreQ1": "no", "TPP": "no", "SAM-II": "no"}
{"compound": "CN(C)C[C@H]1C[C@@H](CO)CN(C(=O)CNc2nc3ccccc3s2)C1", "PreQ1": "no", "TPP": "no", "SAM-II": "no"}
{"compound": "Nc1nc(CCNC(=O)CC(c2ccccc2)c2ccccc2Cl)n[nH]1", "stereo": "centres unmarked", "PreQ1": "no", "TPP": "no", "SAM-II": "no"}
{"compound": "Cc1ccc(CCNCc2cc(O)c3cccc(Cl)c3n2)s1", "PreQ1": "no", "TPP": "no", "SAM-II": "no"}
{"compound": "N[C@@H](Cc1c[nH]cn1)C(=O)N1CCN(Cc2ccc(Cl)cc2)CC1", "PreQ1": "no", "TPP": "no", "SAM-II": "no"}
{"compound": "CC(NC(=O)c1cc(-c2cccs2)nn1C)c1nnc2n1CCNCC2", "stereo": "centres unmarked", "PreQ1": "no", "TPP": "no", "SAM-II": "no"}
{"compound": "O=C(c1ccc(Cn2cnnn2)cc1)N1CCOCC(CO)C1", "stereo": "centres unmarked", "PreQ1": "no", "TPP": "no", "SAM-II": "no"}
{"compound": "O=C1CCCC2=C1C(c1[nH]ncc1Cl)N=C(Nc1nc3ccccc3o1)N2", "stereo": "centres unmarked", "PreQ1": "no", "TPP": "no", "SAM-II": "no"}
{"compound": "CC(C)c1cc(NCCCc2ccccc2)n2nc(-c3cccnc3)nc2n1", "PreQ1": "no", "TPP": "no"}
{"compound": "O=c1ccccn1Cc1nc(C(O)c2ccccc2)nn1C1CCCCC1", "stereo": "centres unmarked", "PreQ1": "no", "TPP": "no", "SAM-II": "no"}
{"compound": "Nc1ccc(S(=O)(=O)NCc2cccnc2)cc1", "PreQ1": "no", "TPP": "no", "SAM-II": "no"}
{"compound": "O=S1(=O)C[C@@H](O)[C@H](n2cnnc2)C1", "PreQ1": "no", "TPP": "no", "SAM-II": "no"}
{"compound": "O=C(NCCO)c1ccc2[nH]c3c(c2c1)CCCC3", "PreQ1": "no", "TPP": "no", "SAM-II": "no"}
{"compound": "O=C(O)C1CC2(CCNCC2)CN1C(=O)CCN1C(=O)COc2ccccc21", "stereo": "centres unmarked", "PreQ1": "no", "TPP": "no", "SAM-II": "no"}
{"compound": "COc1ccc(NC2=NC(=O)C(CO)(CO)S2)cc1", "PreQ1": "no", "TPP": "no", "SAM-II": "no"}
{"compound": "Nc1ccccc1Sc1nc2ccccc2s1", "PreQ1": "no", "TPP": "no", "SAM-II": "no"}
{"compound": "CNCC#CCOc1ccc(C)cc1Cl.Cl", "PreQ1": "no", "TPP": "no", "SAM-II": "yes"}
{"compound": "OCCn1nc(-c2c[nH]c3ccccc23)nc1C1CCCCO1", "stereo": "centres unmarked", "PreQ1": "no", "TPP": "no", "SAM-II": "no"}
{"compound": "CCC(=O)O[C@]1(C(=O)CCl)[C@@H](C)C[C@H]2[C@@H]3CCC4=CC(=O)C=C[C@]4(C)[C@@]3(F)[C@@H](O)C[C@@]21C", "PreQ1": "no", "TPP": "no", "SAM-II": "no"}
{"compound": "Cc1cc(-n2cccn2)ccc1-c1c(-c2ccccc2)ncn1CCCCN", "PreQ1": "no", "TPP": "no", "SAM-II": "no"}
{"compound": "CSCC(=O)N1C[C@H](c2ccc(C)o2)[C@@H](N)C1", "PreQ1": "no", "TPP": "no", "SAM-II": "no"}
{"compound": "CN(CCO)Cc1cccc(C(=O)Nc2cccc3c2CCC3)c1", "PreQ1": "no", "TPP": "no", "SAM-II": "no"}
{"compound": "Cc1ccc(Nc2c(-c3ccccc3)c(=O)c2=O)c(C)c1", "PreQ1": "no", "TPP": "no"}
{"compound": "O=S(=O)(NCC(Nc1ccc(F)cc1)c1ccccc1)c1ccccc1", "stereo": "centres unmarked", "PreQ1": "no", "TPP": "no"}
{"compound": "Cc1nn(C)c2nc(-c3ccncc3)nc(N[C@@H](CO)Cc3ccccc3)c12", "PreQ1": "no", "TPP": "no", "SAM-II": "no"}
{"compound": "CCN(CCO)C[C@@H]1CN(c2ncnc3onc(C)c23)C[C@@H]1CO", "PreQ1": "no", "TPP": "no", "SAM-II": "no"}
{"compound": "CC1CC(Nc2ccccc2)c2ccccc2N1C(=O)COc1ccc(Cl)cc1", "stereo": "centres unmarked", "PreQ1": "no", "TPP": "no", "SAM-II": "no"}
{"compound": "CN(CC(=O)NC1CC(C)(C)NC(C)(C)C1)S(=O)(=O)c1ccc(Br)cc1", "PreQ1": "no", "TPP": "no", "SAM-II": "no"}

Repeated from the top, 3 entries:

- Cc1nc(NCCN(C)C)c2sc3nc4c(cc3c2n1)COC(C)(C)C4 : PreQ1: no; TPP: no; SAM-II: no
- COc1ccc2ncc(S(=O)(=O)c3ccc(C)cc3)c(NCc3ccccc3)c2c1 : PreQ1: no; TPP: no
- Brc1ccc(NC(c2ccccc2)c2nnc(-c3ccccc3)o2)cc1 (centres unmarked) : PreQ1: no; TPP: no; SAM-II: no